# In US20210139592A1:
# B1: mouse hybridoma anti-human PD-L1 antibody 1E12 (antibody, V domains shown)
# VH: QVQLQQPGAELVKPGASVKLSCKASGYIFISFWIHWVKQRPGQGLEWIGNIDPSDSETHYNEKFRDKASLTVDKSSSTAYMQLSSLTSEDSAVYFCARLDGDYGRAYWGQGTLVTVSA
# VL: NIVLTQSPASLAVSLGQRATISCRASESVDSFGNSFMHWYQQKPGQPPKLLIYLASNLESGVPARFSGSGSRTDFTLTIDPVEADDTATYYCQQNNEDPLTFGGGTKLEIKR
# B2: mouse hybridoma anti-human PD-L1 antibody 3F11 (antibody, V domains shown)
# VH: B1 VH
# VL: B1 VL with V3A, A9T, L15Q, F32N, T87A, E97D, L100W
# B3: mouse hybridoma anti-human PD-L1 antibody 3E10 (antibody, V domains shown)
# VH: QVQLQQSGPELVKPGASVKISCKASGYAFSTSWINWLKQRPGEGLEWLGRIYPGDGDINYNGKFKDKATLTADKSSSTAHIQLNSLTSEDSAVYFCARSNHYYFDFWGQGTTLTVSS
# VL: DVQMTQTTSSLSASLGDRVTINCRASEDIRTYLNWYQQKPDGTIKLLIYYTSRLHSGVPSRFSGSGSGTDYSLTISNLDQEDIATYFCQQVHTLPPWTFGGGTKLEIKR
# B4: mouse hybridoma anti-human PD-L1 antibody 5E6 (antibody, V domains shown)
# VH: EVQLVESGGGFVKPGGSRKLSCAASGFTFSDSGMHWVRQAPEKGLEWVAYISAGSYTIYYADIVKGRFTISRDSAKNTLFLQMTSLRSEDTAIYYCARGDWYFAVWGAGTTVTVSS
# VL: DVLMTQTPLSLPVSLGDQASISCRSSQSLVHINGNTYLEWYLQKPGQSPKLLIYKVSNRFSGVPDRFSGSGSGTDFTLKISRVEPEDLGVYYCSQGSHVPWTFGGGTKVEIKR
# Molecular target: human PD-L1 (human)
# Test: ELISA, PD-L1 coated, anti-mouse IgG-HRP (FIG. 3A)
row,Binder,binding
1,B1,binds
2,B2,binds
3,B3,binds
4,B4,binds

# Molecular target: human PD-L1 (human)
# Test: binding to wild-type PD-L1 in the site-directed mutagenesis mapping
row,Binder,binding
1,B1,binds
2,B2,binds
3,B3,binds
4,B4,binds

# Positions count from the first letter of the chain named. These are yes or no findings as the source states them, for the method shown. Binding can be weak; no strength is given.
